Assay results: patent publication US20110182911A1 (published 2011)
No constants are given. Whether binding was seen depends on the method and setting. Some binding calls cover weakened binding; strength is not graded here.

The chains behind the UniProt entries cited, without tags or fusion partners. Residues count along the entry.
UniProt P12643, residues 283-396: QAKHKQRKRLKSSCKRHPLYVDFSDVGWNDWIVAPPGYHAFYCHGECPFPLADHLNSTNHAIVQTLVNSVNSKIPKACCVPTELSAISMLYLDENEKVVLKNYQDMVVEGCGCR

Assays:
[1] = target: T1, recombinant human BMP-2 (human, UniProt P12643 283-396); assay: rhBMP-2 dried onto protein-coated 96 well plates, release into PBS+0.1% BSA measured by hBMP-2 ELISA
[2] = target: T1, recombinant human BMP-2; assay: rhBMP-2 dried onto protein-coated 24 well plates, total release over 24 hours measured by hBMP-2 ELISA
[3] = target: T1, recombinant human BMP-2; assay: release of rhBMP-2 from coated wells, hBMP-2 ELISA

Measured: binding

B1: recombinant mouse Noggin (other, UniProt P97466 28-232, looked up)
chain: QHYLHIRPAPSDNLPLVDLIEHPDPIFDPKEKDLNETLLRSLLGGHYDPGFMATSPPEDRPGGGGGPAGGAEDLAELDQLLRQRPSGAMPSEIKGLEFSEGLAQGKKQRLSKKLRRKLQMWLWSQTFCPVLYAWNDLGSRFWPRYVKVGSCFSKRSCSVPEGMVCKPSKSVHLTVLRWRCQRRGGQRCGWIPIQYPIISECKCSC
binds: all assays above
